# Data from US11980594B2, “Composition and method for treating a drug-resistant cancer” (NOVELWISE PHARMACEUTICAL CORPORATION, priority 2021, dated 2024).
# Test system: HepG2 cells
# Assay: BMX-L1000 gene expression, differentially expressed genes
# Assay type: cell-based
# Settings: BMX (1 μM) vs DMSO control, 1.5-fold change, p-value<0.05
# Source text: Indirect process: CLUE calculated the connectivity score of shRNA HDAC8 among their one million profiles and ordered the similarity to opposite compounds as well as gene perturbations. The criteria were filtered above 90 positive scores and collected each instance targeted-genes as shRNA HDAC8 regulators in biological function. Input this genes list in CPDB platform for enrichment analysis to obtain clear pathways information. Direct process: Based on BMX-L1000 gene expression data, both up-regulation and down-regulation gene list which respond to the drug biological function in HepG2 cells. BMX (1 μM) compared to DMSO control to define the significant differential expression genes (DEGs) according to ±1.5 fold change, p-value<0.05. […] To narrow down the prioritized pathways, we interested two results and selected the common element.
# To explore possible mechanisms of HDAC8 inhibitor and gene involvement, we used Connectivity map (C-Map) and the Library of Integrated Network-Based Cellular Signatures Unified Environment (CLUE) systemic database (https://clue.io/) and ConsensusPathDB (CPDB) platform (http://cpdb.molgen.mpg.de/) for the comprehensive mechanism analysis. […] Next, we analyzed the HDAC8 inhibition function through an indirective approach, pattern matching algorithm of the CLUE platform. […]
smiles,measurement,value
"COc1ccc(COc2c(/C=C/C(=O)NO)ccc(OC)c2CC=C(C)C)cc1 [BMX, (E)-2-(4-Methoxybenzyloxy)-3-prenyl-4-methoxy-N-hydroxycinamide]","significant differentially expressed genes, down-regulation",900
same,"significant differentially expressed genes, up-regulation",1583
